# Primary screen of a compound library

The chains behind the UniProt entries cited, without tags or fusion partners.
UniProt E9BF75, entry or part of it: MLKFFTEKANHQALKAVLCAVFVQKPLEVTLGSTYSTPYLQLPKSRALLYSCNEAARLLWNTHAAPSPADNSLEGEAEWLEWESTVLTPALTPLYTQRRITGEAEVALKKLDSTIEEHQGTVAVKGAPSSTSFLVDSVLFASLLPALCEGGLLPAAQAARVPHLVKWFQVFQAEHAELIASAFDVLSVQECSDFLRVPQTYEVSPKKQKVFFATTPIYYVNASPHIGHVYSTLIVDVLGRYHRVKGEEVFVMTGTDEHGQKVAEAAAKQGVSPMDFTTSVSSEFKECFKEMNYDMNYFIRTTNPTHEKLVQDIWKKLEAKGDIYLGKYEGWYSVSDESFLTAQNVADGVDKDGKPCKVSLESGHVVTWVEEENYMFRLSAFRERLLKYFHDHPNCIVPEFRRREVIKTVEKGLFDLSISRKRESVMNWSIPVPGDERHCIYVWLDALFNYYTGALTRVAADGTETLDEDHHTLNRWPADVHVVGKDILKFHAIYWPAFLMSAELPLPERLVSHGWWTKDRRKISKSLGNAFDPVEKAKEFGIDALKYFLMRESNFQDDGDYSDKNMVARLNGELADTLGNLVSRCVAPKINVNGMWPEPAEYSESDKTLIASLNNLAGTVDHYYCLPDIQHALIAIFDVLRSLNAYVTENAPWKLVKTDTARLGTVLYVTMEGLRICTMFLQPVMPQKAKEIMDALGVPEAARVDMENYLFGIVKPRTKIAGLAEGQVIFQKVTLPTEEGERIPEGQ

Measurements from “University of Dundee, Small-Polar-MMV Screening Library” (2021), ChEMBL document CHEMBL3988442.

Mtb heat-shock: 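Assay on Mycobacterium tuberculosis, filed only as a heat shock assay from Cornell; the read-out is not stated. The concentration is filed as 10 mM, unlikely as a test dose, so the dose is not known. Higher reads as stronger inhibition (inferred: compounds with an IC50 in retests scored well above the rest). Size under these conditions: about 69,000 compounds, about 930 of them at 50% or above in at least one test.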
LdMetRS: 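Methionyl-tRNA synthetase (putative), Leishmania donovani (UniProt E9BF75). Primary screen of methionyl-tRNA synthetase; the read-out is not stated. The test concentration is not given. Values are per cent inhibition. About 68,000 compounds were tested under these conditions; 0.035% (about 24) showed 50% or more at least once.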
Mtb growth Cornell: 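Whole-cell assay for inhibitors of Mycobacterium tuberculosis growth, labelled Cornell in the record; the read-out is not stated. The concentration is filed as 10 mM, unlikely as a test dose, so the dose is not known. Higher means stronger inhibition (inferred from two other growth screens of the library). About 53,000 compounds were tested under these conditions; 1.7% (about 900) showed 50% or more at least once.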

All values are in %. The controls that fix the scale are not given in the record; negative values are as filed. This is an unselected part of the compounds tested. A dash means the value is not listed here; it may have been measured.

SMILES,Mtb heat-shock,LdMetRS,Mtb growth Cornell
c1ccc(Cc2noc(CN3CCCC(Cn4cncn4)C3)n2)cc1 (configuration not stated),-0.88%,23.93%,-40.14%
O=C(CCN1CCCC1c1cccc2c1OCCO2)N1CCCCC1 (configuration not stated),26.91%,20.16%,-4.371%
CC(C)n1cnnc1CN(C)CC1CCCNC1 (configuration not stated),16.32%,15.14%,17.09%
COc1ccc(C(C)N2CCC(C(=O)N(C)C)CC2)cc1Cl (configuration not stated),28.49%,14.99%,-11.61%
[H][C@@]12C[C@H](C(=O)NCc3cccnc3)[C@@]([H])(CN(CC)C1)O2,-4.927%,-,15.54%
CCc1nc(CN2CCCN(C(=O)CC3CCCC3)CC2)cs1,10.84%,9.399%,23.63%
CN1CCC2(COCc3cnc(N4CCOCC4)nc32)C1 (configuration not stated),-,7.884%,-
O=C(NCc1cnc2n1CCN(CC1CCOCC1)C2)c1ccno1.O=C(O)C(F)(F)F,-7.686%,-,-45.92%
CC(C)CCN1CCc2nc(N3CCOCC3)nc(NC(C)C)c2C1,8.659%,20.88%,11.92%
O=C(CCSc1ccccc1)NCC1CCN(Cc2ccsc2)CC1,8.394%,15.21%,21.28%
CN1CCOC(CNCc2cccc(OCC(F)(F)F)c2)C1 (configuration not stated),-1.871%,9.859%,3.103%
[H][C@@]12CN(C(=O)N(C)C)C[C@]1([H])C(=O)NC21CCN(C(=O)CC(C)C)CC1,-1.703%,-,-
Cc1cc(C)c2cc(CNCc3cccnc3)c3nn(C)c(=O)n3c2c1,-1.848%,21.47%,-6.344%
COc1ccc(CNC(Cc2ccsc2)c2ccc(C)cn2)c(OC)c1 (configuration not stated),104.3%,12.07%,18.63%
CC(=O)N1CCC2(CC1)CC(Oc1ccccc1)CO2 (configuration not stated),-0.936%,17.5%,-5.49%
O=C(O)CCn1ccc2c(nnc3c(-c4ccc(F)cc4)cnn32)c1=O,4.063%,6.192%,-17.62%
Cc1nc(C)n(C2CCCN(C(=O)c3ccccc3C)C2)n1 (configuration not stated),2.414%,9.722%,-
Cc1noc([C@H]2C[C@H]3CN(C(=O)C4CCOCC4)CC[C@@H]3O2)n1,-,15.56%,-
CC(C)C1=NOC2(CCN(C(=O)C3CCCC3)CC2)C1,-33.31%,9.143%,-
CCn1nc(C)c(CCNC(=O)c2coc(CN3CCOCC3)c2)c1C,-19.52%,9.524%,-
COCCCNC(=O)Nc1cccc2ncccc12,3.595%,6.597%,-2.657%
CC(Cn1cccn1)NC(=O)c1cc(C2CC2)nc2c1cnn2C (configuration not stated),-0.319%,10.79%,34.11%
COCCN1CCC(c2ncc(C(=O)N3CCOCC3)c(C)n2)CC1,12.66%,18.99%,1.46%
N#Cc1ccsc1C(=O)N1CCCCC1Cn1cccn1 (configuration not stated),-31.78%,1.742%,-34.29%
COC(=O)c1ccc(OC)c(OC23CCCN(CC2)C3)c1 (configuration not stated),-19.24%,21.51%,18.25%
CC(C)NC(=O)NCCn1cnc(C2CCCC2)cc1=O,7.456%,13.67%,17.92%
COCC(NC(=O)c1cc[nH]n1)c1cccc(C(F)(F)F)c1 (configuration not stated),-9.463%,9.36%,-9.59%
CCCc1nnc(N2CCC3(CC2)CN(C)C(=O)O3)o1,-20.38%,6.875%,-
CCn1ccc(-c2cc(C(=O)O)n3nc(C(F)(F)F)c(Br)c3n2)n1,10.18%,11.05%,26.42%
Cc1cccc(CN2C(=O)CCC23CCN(Cc2cccn2C)CC3)n1,-,18.52%,-
Cc1nc(COc2ccc(OC(C)C(N)=O)cc2)oc1C (configuration not stated),-26.02%,11.71%,7.384%
CCn1c(NCC2CCCO2)nc2c(C)nn(C)c2c1=O (configuration not stated),12.28%,15.26%,27.55%
Cc1nc(CNC(=O)NC2CCN(c3cccc(Cl)c3)C2)no1 (configuration not stated),-0.3902%,19.44%,-40.61%
NC(=O)C(Cc1ccccc1)NS(=O)(=O)Cc1ccccc1Cl (configuration not stated),-4.302%,12.81%,-
O=C(CSc1ccccn1)N1CCN(CCO)[C@@H]2CS(=O)(=O)C[C@@H]21,-,13.17%,-
[H][C@]12CC[C@]([H])(CN(C(=O)c3cnc(O)cn3)C1)N(Cc1ccccc1)C2,-5.956%,-,9.482%
Cc1cc(N2CCCC(c3[nH]ncc3Cc3ccccc3)C2)nc(N)n1 (configuration not stated),-9.159%,15.32%,13.81%
Cc1ccc(OCC(C)NS(C)(=O)=O)cc1 (configuration not stated),20.98%,9.42%,-7.22%
Cc1cc(N2CCN(C(=O)Cc3ccc4c(c3)OCO4)CC2)cc(C)n1,-27.68%,19.31%,-9.071%
CN1CCN(C(=O)c2cc3c(s2)CCN3C(=O)C2CC2)CC1,-9.969%,19.71%,-18.58%
c1ccc2nc(N3CCCC3c3nnc4n3CCCCC4)cnc2c1 (configuration not stated),-3.276%,5.149%,-2.957%
CN1CC(c2cc(O)nc(NCc3ccccc3Cl)n2)CC1=O (configuration not stated),-6.374%,9.896%,-32.72%
CN(C(=O)Cc1coc(-c2ccccc2)n1)C1(C#N)CCC1,-18.35%,15.04%,10.88%
Cc1cc(-c2cc(-c3cc(CC(=O)O)cs3)nc(N)c2C#N)oc1C,2.295%,11.25%,-31.69%
CCCC(=O)N1CCC(C(=O)NCCNc2ncccn2)CC1,-4.881%,13.89%,-12.73%
Cn1ncc2c1C(COCC1CC1)CN(S(C)(=O)=O)C2 (configuration not stated),20.86%,11.75%,14.32%
Cn1ccc(C2CCCCN2C(=O)c2cccc(Cn3cccn3)c2)n1 (configuration not stated),5.715%,4.545%,-
CCc1ccccc1NC(=O)N1CCn2cnc(COC)c2C1,3.498%,14.5%,19.13%
O=C(O)C(F)(F)F.O=C(O)C(F)(F)F.[H][C@@]12COC[C@]1(COCc1ccncc1)CN(Cc1ccsc1)C2,-27.64%,-,11.55%
Cc1nc(Nc2ncccn2)cc(C2CCCN2C)n1 (configuration not stated),-7.061%,15.53%,-73.34%
CN(Cc1ccccc1F)C(=O)c1cc(Cl)c[nH]1,23.88%,7.592%,29.16%
Cc1ccc(-c2nnc(CN3CCc4cnc(C)nc4C3)o2)cc1,15.25%,25.08%,17.82%
Cn1nc(C2CCCN2)c2c(C(=O)NCC(F)(F)F)cc(C3CC3)nc21 (configuration not stated),-14.4%,5.714%,-
O=C(C1=CCCC1)N1CCC[C@]2(C[C@@H](OCc3ccccn3)CO2)C1.O=C(O)C(F)(F)F,-6.878%,-,17.32%
O=C(O)C(F)(F)F.[H][C@@]12CCN(Cc3ccc(C)o3)C[C@@]1([H])[C@H](C(=O)N1CCCCO1)CCO2,-16.6%,-,-6.947%
O=C(O)C(F)(F)F.O=C(O)C(F)(F)F.[H][C@@]12CCN(C3CCC3)C[C@]1(C(=O)NCCc1ccccn1)CCO2,6.121%,-,13.97%
NC(=O)C1CCN(c2cncc(-n3cccn3)n2)CC1,-22.28%,0.5495%,-30.25%
COc1cc(C2CC(=O)NCc3nc4sccn4c32)cc(OC)c1O (configuration not stated),2.257%,10.05%,-24.81%
CN1CCOCC2(CCCN(C(=O)c3cn(C)cn3)C2)C1.O=C(O)C(F)(F)F (configuration not stated),-37.39%,-,19.25%
[H][C@@]12CS(=O)(=O)C[C@]1([H])N(C(=O)c1[nH]c3ccccc3c1CC)CCN2C,10.07%,-,-9.1%
CN(CCCOc1ccccc1Cl)C(=O)CN1C[C@@H]2CC[C@H](CC1=O)N2,-,11.48%,-
CC(C)c1sc(Cl)nc1C(=O)NCc1ccncc1,2.685%,9.704%,20.17%
Cc1cnn(CC2CCCCN2Cc2nc(-c3ccoc3)no2)c1 (configuration not stated),5.197%,13.73%,24.03%

Repeated from the top, 4 entries:

| SMILES | Mtb heat-shock | LdMetRS | Mtb growth Cornell |
|---|---|---|---|
| `c1ccc(Cc2noc(CN3CCCC(Cn4cncn4)C3)n2)cc1` (configuration not stated) | -0.88% | 23.93% | -40.14% |
| `O=C(CCN1CCCC1c1cccc2c1OCCO2)N1CCCCC1` (configuration not stated) | 26.91% | 20.16% | -4.371% |
| `CC(C)n1cnnc1CN(C)CC1CCCNC1` (configuration not stated) | 16.32% | 15.14% | 17.09% |
| `COc1ccc(C(C)N2CCC(C(=O)N(C)C)CC2)cc1Cl` (configuration not stated) | 28.49% | 14.99% | -11.61% |